# Percent effect of library compounds

Chains of the proteins cited; added tags and fusions are not shown. Residues count along the entry.
UniProt Q8IDJ8, 1-583: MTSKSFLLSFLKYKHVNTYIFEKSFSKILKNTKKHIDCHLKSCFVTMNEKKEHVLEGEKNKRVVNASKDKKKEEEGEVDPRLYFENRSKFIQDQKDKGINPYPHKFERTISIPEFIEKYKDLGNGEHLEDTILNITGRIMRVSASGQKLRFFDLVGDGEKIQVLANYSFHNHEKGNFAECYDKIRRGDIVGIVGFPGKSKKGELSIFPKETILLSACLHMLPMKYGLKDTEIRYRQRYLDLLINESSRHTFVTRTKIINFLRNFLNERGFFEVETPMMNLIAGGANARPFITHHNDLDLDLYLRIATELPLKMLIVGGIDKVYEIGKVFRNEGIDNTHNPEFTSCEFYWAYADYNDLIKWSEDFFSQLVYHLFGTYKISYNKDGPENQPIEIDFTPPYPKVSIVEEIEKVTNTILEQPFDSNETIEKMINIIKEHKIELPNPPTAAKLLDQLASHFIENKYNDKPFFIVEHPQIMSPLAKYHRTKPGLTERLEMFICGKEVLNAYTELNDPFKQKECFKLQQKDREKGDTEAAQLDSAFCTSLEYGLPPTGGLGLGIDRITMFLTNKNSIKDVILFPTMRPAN

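Enzyme assay of the cytosolic lysyl-tRNA synthetase in 384-well plates, read by luminescence. Target: Lysine-tRNA ligase, Plasmodium falciparum 3D7 (UniProt Q8IDJ8). Concentration: 30 µM. Higher reads as stronger inhibition, judged from the few compounds that gave an IC50. Of about 69,000 compounds tested this way, about 49 (0.071%) reached 50% or more in at least one test.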

Each number is a percent effect as filed. The controls that fix the scale are not given in the record; negative values are as filed. This is an unselected part of the compounds tested.

Cc1cnc(N2CCn3c(CN4CCOCC4)nnc3C2)nc1 read 3.45%. With Cc1cccc(CC(=O)N2CCCC(N(C)CCCN(C)C)C2)c1 (stereo not shown) the screen gave 4.837%. With Cc1ccc(CN2CC[C@@H]3O[C@@H](C(=O)N4CCN(C)CC4)C[C@@H]32)cc1 the screen gave 3.649%. COc1ccc(CN(C)C(=O)Cc2c(C)nn(C)c2C)cc1F gave 1.005%. For CCNc1ncc(C(=O)N2Cc3nc(C)[nH]c(=O)c3C2)cn1 the result was -1.502%. With CCc1ncc(C(=O)N2CCC(O)(CN3CCOCC3)C(C)(C)C2)cn1 (stereo not shown) the screen gave 3.72%. For Cc1nc(C2CCCN2C(=O)COc2ccccc2)ncc1C(N)=O (stereo not shown) the result was -1.985%. CNC(=O)C1CN(c2ccc(F)cc2)CCN1 (stereo not shown) gave -0.4976%.

Result for CN1CCOC(C(=O)Nc2ccc3[nH]nnc3c2)C1 (stereo not shown) was 1.382%. For CSc1ccc(OC(C)C(=O)Nc2cc(C)n[nH]2)cc1 (stereo not shown) the result was -1.978%. Result for CNc1nc(C(=O)N2CCCC(c3nccn3CC3CCC3)C2)cs1 (stereo not shown) was 1.379%. O=C(Cc1ccc(F)cc1)N1CCCC(c2n[nH]c3nccnc23)C1 (stereo not shown) gave 34.83%. With N#Cc1cccnc1N1CCN(S(=O)(=O)NCc2ccccc2)CC1 the screen gave 7.92%. Result for Cc1ncsc1CCN(C)C(=O)CN1CC2(CCCC2)CC1=O was 2.06%. Cc1oc(-c2ccc(F)cc2)nc1CN1CCOCS1(=O)=O read 3.117%. Cc1ccoc1C(=O)N1C[C@@H](OCC2CCOCC2)[C@H]2OCCC[C@H]21 gave 4.627%.

With O=C(NCc1nncn1C1CC1)c1ccccc1Oc1cccnc1 the screen gave 4.786%. Cc1cc2n(n1)CC(CNC1CCN(Cc3ccccn3)CC1)CN2 (stereo not shown) read 4.972%. CC(O)CN1CCN(C(=O)c2cnc(OC(C)C)c(Cl)c2)CC1 (stereo not shown) gave 0.3534%. With Cc1cc(C2CCCN2C(=O)c2cnn(C)c2)on1 (stereo not shown) the screen gave 2.126%. For Cc1cccc(CN2CCc3ncnc(N4CCN(C)CC4)c3CC2)n1 the result was 1.732%. Result for FC(F)(F)c1ccc(-c2cnc(C3CCCN3)cn2)cc1 (stereo not shown) was -1.608%. c1ccc(N(CCn2cncn2)CC2CC2)cc1 read 1.297%. With Cn1c2ccc(F)cc2c2ncn(CCCN(CCO)CCO)c(=O)c21 the screen gave 0.03504%.

With CCN1CCN(CC(C)(O)c2cccc(C(F)(F)F)c2)CC1 (stereo not shown) the screen gave 7.982%. Cn1ccnc1CN1CCC2(CCC(=O)N2CCN2CCCC2)CC1 gave 1.061%. CCc1nc(C2CCCN(C(=O)c3ccc(O)nc3)C2)no1 (stereo not shown) read 1.815%. Result for CC(C)(C)c1n[nH]cc1CNC1CCC(C(F)(F)F)CC1 (stereo not shown) was 0.7655%. Result for CC(c1nc(C2CC2)no1)N1CCc2c(ncn2C2CC2)C1 (stereo not shown) was 11.15%. With CC(C)CNC1(Cc2cc(-c3ccccc3)on2)COC1 the screen gave 1.084%. CNC(=O)NC(=O)CNC(CC(F)(F)F)c1ccc(F)cc1 (stereo not shown) read -5.701%. Result for Cc1nccn1-c1nccnc1C1CCCN(C)C1 (stereo not shown) was 2.647%.

Result for CN(CC(=O)NCC(=O)Nc1ccc(F)cc1)Cc1cccs1 was 1.764%. With CC(=O)N1CCN(Cc2nnc(C(C)(C)C)o2)CC1 the screen gave 5.412%. O=C(Nc1ccc(CCN2CCOCC2)cc1)C1CCCC1 gave -0.1635%. CCC(=O)N1CCCCC1c1nc(CN(C)C(C)=O)cc(N(C)C)n1 (stereo not shown) read 0.9119%. Result for O=C(c1ccc(COc2ccccc2Cl)o1)N1N=CCC1(O)C(F)(F)F (stereo not shown) was -0.182%. CC(C)NC(=O)CS(=O)(=O)c1cc2c(cc1Cl)OCCO2 gave 3.606%. With CCc1ocnc1C(=O)N1CCOC(c2nc(C(C)C)n[nH]2)C1 (stereo not shown) the screen gave 3.51%. CN(C)C(=O)c1nn(C)c2c1CN(Cc1ccoc1)C2 read 6.032%.

Result for Cc1noc(C)c1CN1CCn2cc(CNc3ccccn3)nc2C1 was 3.025%. With COc1cccc(COCC(=O)NC(C)c2nnc3n2CCC3)c1 (stereo not shown) the screen gave 0.1367%. With CN(c1ncccc1C#N)C1CCN(CCc2ccccn2)CC1 the screen gave 3.693%. With Cc1cccc(CN2CCCC2(C(N)=O)c2cnccn2)n1 (stereo not shown) the screen gave 4.576%. With Cc1nc(C)c(CN2CCC(N(C)Cc3nnc(C4CC4)o3)C2)s1 (stereo not shown) the screen gave -1.715%.

5 of the entries, repeated:

Compound	effect
Cc1cccc(CC(=O)N2CCCC(N(C)CCCN(C)C)C2)c1 (stereo not shown)	4.837%
CC(c1nc(C2CC2)no1)N1CCc2c(ncn2C2CC2)C1 (stereo not shown)	11.15%
CCNc1ncc(C(=O)N2Cc3nc(C)[nH]c(=O)c3C2)cn1	-1.502%
CC(C)(C)c1n[nH]cc1CNC1CCC(C(F)(F)F)CC1 (stereo not shown)	0.7655%
Cc1oc(-c2ccc(F)cc2)nc1CN1CCOCS1(=O)=O	3.117%

The values are deposited in ChEMBL (CHEMBL3988442, “University of Dundee, Small-Polar-MMV Screening Library” (2021)).